We go through 13 molecules from PubChem BioAssay (NCATS).

Sequences of proteins named here, by UniProt entry; tags and fusion partners are left off. A change or cut given only in a name is not applied to a line headed by its entry.
UniProt P40261: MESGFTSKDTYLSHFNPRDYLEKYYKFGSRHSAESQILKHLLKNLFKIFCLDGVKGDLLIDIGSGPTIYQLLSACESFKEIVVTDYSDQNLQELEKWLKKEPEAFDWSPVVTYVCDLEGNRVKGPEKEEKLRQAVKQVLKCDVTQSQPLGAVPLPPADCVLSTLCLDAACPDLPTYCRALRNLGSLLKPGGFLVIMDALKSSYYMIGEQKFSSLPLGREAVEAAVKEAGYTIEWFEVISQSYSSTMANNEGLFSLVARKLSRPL

“And” between values parts separate entries of the source, which are not always exact repeats. Identical values can stand only once. The list shows a part of the results. Shown are side measurements of this screen, not its main read-out; they come without a call. For some of these results: Most of these compounds were active or inconclusive in the main read-out, so they are no random draw. For some of these results: Potencies come from curve fits of mixed quality, noted in brackets.

One may read the AC50 as the concentration at which the activity in the assay is half-maximal. For orientation: IC50 means the concentration that inhibits the measured activity by half.

Test [1] can be described thus: A High-Content qHTS Against Drug Library for the Identification of Small Molecules that Inhibit DYT1 Early Onset Primary Dystonia-Associated Cell Pathology (AID 1645839). Particulars: HEK293 Flp-In EGFP-delE TorsinA, punctate imaging, 48 h; measured here: cell count cytotoxicity. The essentials:
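Cells were seeded and left for 24 h, then dosed with compound alongside tetracycline induction of mutant EGFP-TorsinA. They were incubated for 48 h, fixed in 4% paraformaldehyde, permeabilized and imaged for mislocalization (%pathology) and cell count.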

Test [2] deals with Nicotinamide N-methyltransferase (Homo sapiens) (UniProt P40261). As to the kind of experiment: Confirmatory Screen for Target Class Profiling of Small Molecule Inhibitors of Methyltransferases (AID 1745852). The note with it: MTase-Glo luminescence, SAH detection, recombinant enzyme; measured here: NNMT inhibition potency.
Test [3] is described as follows: NCATS anti-infectives library activity on the primary C. elegans qHTS viability assay (AID 1745855). The note with it: C. elegans worm area imaging. The essentials:
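GFP read-out by 488 nm laser cytometry at day 0, 3 and 7, gated on object perimeter, area and peak intensity, scored viability of PE254-GFP-FLuc worms exposed to compound in S medium with bacterial capsules at 21 °C.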
A general note: In qHTS, concentration-response curves come from the screen itself.

A short description of test [4]: qHTS drug screen for cell cycle checkpoint inhibitors in PARPi-resistant BRCA-mutant ovarian cancer cell lines. (AID 1963452). Particulars: PEO1/OlaR viability, CellTiter-Glo luminescence, 96 h. A digest of the protocol: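 PEO1, PEO4 and PEO1/OlaR ovarian cancer cells, 600 per well, exposed 96 h at 37C to a dilution series. Viability read by CellTiter-Glo luminescence, normalized to DMSO and empty wells; activity summarized as Z-AUC.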

The nature of test [5]: qHTS assay for small molecule antagonists of androgen receptor signaling (AID 588516). The note with it: AR-UAS-bla HEK293, beta-lactamase ratio, antagonist mode, 16 h. The essentials: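 Antagonist mode: inhibition of R1881-stimulated (10 nM final) bla reporter in GeneBLAzer AR HEK 293 cells, 16 h at 37C, compounds titrated. IC50 and efficacy from Hill-equation fits of 405/460–530 nm FRET ratios.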

A short description of test [6]: qHTS assay for small molecule agonists of retinoid X receptor alpha signaling (AID 588544). The note with it: HEK293T RXRa-UAS-bla, beta-lactamase reporter, 18 h; 530 nm emission.
A short description of test [7]: qHTS assay for small molecule antagonists of retinoid X receptor alpha signaling (AID 588546).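 Also: cells stimulated with 9-cis-retinoic acid as agonist; % is scaled to controls: 0 for no effect and ±100 for the full control effect.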 The note with it: HEK293T RXRa-UAS-bla, beta-lactamase ratio, antagonist mode; measured here: W530 green channel, cytotoxicity proxy. The essentials: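 Beta-lactamase reporter inhibition, read as CCF4 fluorescence ratio (ex 405, em 460/530 nm) after 2 h at RT. HEK293T UAS-bla cells, 2500/well, were stimulated with 9-cis-RA at 500 or 100 nM final alongside test compound for 18 h at 37 C.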

The nature of test [8]: S16 Schwann cell PMP22 intronic element beta-lactamase assay (AID 624044). The note with it: S16 rat Schwann cells, PMP22 element beta-lactamase FRET, 24 h. A digest of the protocol:
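Beta-lactamase reporter under a PMP22 intronic regulatory element in stable S16 rat Schwann cells; 24 h compound exposure. 460 nm blue signal normalized between DMSO (0%) and potassium clavulanate, with 535 nm FRET tracking viability; curves classed by r2 and response.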

Test [9] is described as follows: qHTS for identification of novel therapeutic agents for treatment of microphthalmiaassociated transcription factor (MiT) renal cell carcinoma (RCC) (AID 1963991). Particulars: CellTiter-Glo, 48 h; for z-score: stronger effect = lower value. A digest of the protocol: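 Three TFE3-fusion RCC lines (UOK109, UOK124, UOK145), 500 cells/well in complete medium, were treated with MIPE 4.0 compounds for 48 hours at 37 C. Viability was by CellTiter-Glo luminescence, normalized to DMSO (100%) and empty wells (0%); curves fitted over 11 concentrations.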

A short description of test [10]: qHTS Assay for Modulators of Human Peripheral Myelin Protein 22 (PMP22) Expression/Activity (AID 1967). The note with it: Cell-based PMP22 reporter, dual-color luciferase ratio. A digest of the protocol: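 Mouse MSC80 Schwann line, Pmp22 promoter–CBG68 reporter, EF-alpha–CBR internal control. 24h compound exposure, 37 °C/5% CO2, DMEM + 10% FBS. Readout: corrected green/red luminescence ratio, normalized to untreated cells; concentration-response curves fitted and classified.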

Test [11] can be described thus: qHTS Validation Assay to Find Inhibitors of Chronic Active B-Cell Receptor Signaling (AID 485345). Particulars: ABC-DLBCL cells, chronic BCR signaling reporter. The essentials:
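TMD8 ABC-DLBCL cells stably carrying doxycycline-inducible IkappaBalpha–green luciferase fusion plus unfused red luciferase; compounds 46 uM to 3 nM, 4 h at 37C with doxycycline. Corrected green/red luminescence ratio normalized to 10 uM MG-132 and basal cell wells; curves fitted.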

The mark [12] stands for this setting: day 7, measured here: worm number.
The mark [13] stands for this setting: day 7, measured here: worm area, day 3.
[14] abbreviates: measured here: 460 nm blue channel.
Setting [15] is: measured here: PEO1 parental viability.
[16] abbreviates: TFE3-RCC UOK109 viability, measured here: UOK109 Z-AUC.
[17] abbreviates: TFE3-RCC viability, measured here: UOK124 Z-AUC.
[18] abbreviates: TFE3-RCC viability, measured here: UOK124 cell viability.
The mark [19] stands for this setting: TFE3-RCC viability, measured here: UOK145 Z-AUC.
Where [20] appears, read: TFE3-RCC viability, measured here: UOK145 cell viability.

`O=C1Nc2ccc(Cl)cc2[C@@](C#CC2CC2)(C(F)(F)F)O1`: the AC50 in test [1] was 35.5 µM [falling, single point]; in test [3] (setting [12]) it was 25.8 µM [falling, single point]; in test [3] (setting [13]), 57.8 µM [falling, single point]; in test [4] (measured here: PEO4 viability) it was 17.4 µM [falling, single point] and 27.5 µM [falling, single point]. Moreover, in test [2], the IC50 is 24.1 µM [falling, partial curve].
Consider `CC(C(O)c1ccccc1)N(C)CCOC(c1ccccc1)c1ccccc1` (stereo not given), for which, in [1], the AC50 is 11.2 µM [falling, single point].
With `Cc1c(O)cccc1C(=O)N[C@@H](CSc1ccccc1)[C@H](O)CN1C[C@H]2CCCC[C@H]2C[C@H]1C(=O)NC(C)(C)C`, the AC50 is 25.1 µM [falling, full curve] in test [5] (measured here: W460 blue channel fit); 11.2 µM [rising, partial curve, poor fit] in test [5] (measured here: W530 green channel, cytotoxicity/artifact); 25.1 µM [falling, single point] in test [8] (setting [14]); 5.62 µM [falling, full curve, poor fit] in test [1]; 13.8 µM [falling, single point] in test [4] (setting [15]); 24.5 µM [falling, single point] in test [4] (measured here: PEO4 viability). In addition, the max response in test [6] came out at 24.8%; in test [7], 22.8%.
With `Clc1ccc(C(Cn2ccnc2)OCc2ccc(Sc3ccccc3)cc2)c(Cl)c1` (stereo not given), the AC50 in test [1] is 1.12 µM [rising, full curve, poor fit]; in test [4] (setting [15]), 12.3 µM [falling, partial curve, poor fit]; in test [4] (measured here: PEO4 viability), 15.5 µM [falling, partial curve]; in [9] (setting [18]), 23.5 µM [falling, partial curve]; in test [9] (setting [20]), 26.4 µM [falling, single point]. Also, the z-score is -0.0559 in [9] (setting [16]), 0.55 in [9] (setting [17]) and 2.82 in [9] (setting [19]).
`CN1CCN(C2Cc3ccccc3Sc3ccc(Cl)cc32)CC1` (stereo not given): the AC50 in test [10] (measured here: green reporter channel AC50, mouse Pmp22 promoter in mouse Schwann cells) was 37.9 µM [falling, full curve]; in test [10] (measured here: red reporter channel AC50, EF-alpha promoter control reporter in MSC80 mouse Schwann cells), 33.8 µM [falling, full curve]; in test [11] (measured here: CBG/CBR ratio read-out) it was 20.6 µM [falling, single point]; in test [11] (measured here: CBR control luciferase (viability counter)), 29.1 µM [falling, single point]; in [1], 7.94 µM [falling, partial curve, poor fit]. Besides, in [2], the IC50 is 43.2 µM [falling, partial curve, poor fit].
As for `CCCS(=O)c1ccc2nc(NC(=O)OC)[nH]c2c1` (stereo not given), the AC50 was 6.31 µM [falling, partial curve, poor fit] in test [1]; 21.9 µM [falling, partial curve, poor fit] in test [4] (setting [15]); 27.5 µM [falling, single point] in test [4] (measured here: PEO4 viability); 23.5 µM [falling, partial curve, poor fit] in test [9] (setting [18]); 20.9 µM [falling, partial curve] in test [9] (setting [20]). The z-score in test [9] (setting [16]) was 0.728; in test [9] (setting [17]) it was -0.0858; in [9] (setting [19]) it was 0.693.
Take `CCN(CC)CCNC(=O)c1c(C)[nH]c(/C=C2\C(=O)Nc3ccc(F)cc32)c1C`: the AC50 is 35.5 µM [falling, single point] in test [1]; 11 µM [falling, partial curve] in test [4] (setting [15]); 19.5 µM [falling, partial curve] in test [4] (measured here: PEO4 viability).
Regarding `O=C(NOCC1CC1)c1ccc(F)c(F)c1Nc1ccc(I)cc1Cl`, the AC50 in test [1] is 12.6 µM [falling, single point]; in [4] (setting [15]), 5.49 µM [falling, single point]; in [9] (setting [18]), 18.7 µM [falling, partial curve]; in [9] (setting [20]), 20.9 µM [falling, partial curve]. Besides, the z-score in test [9] (setting [16]) is -1.29; in test [9] (setting [17]), -0.235; in test [9] (setting [19]) it was -0.299.
Take `COC(=O)C1=C(C)NC(C)=C(C(=O)OCCCN2CCC(c3ccccc3)(c3ccccc3)CC2)C1c1cccc([N+](=O)[O-])c1` (stereo not given): the AC50 in test [8] (setting [14]) is 22.4 µM [falling, single point]; in [1], 0.708 µM [falling, full curve, poor fit]; in [4] (setting [15]), 19.5 µM [falling, partial curve]; in test [4] (measured here: PEO4 viability) it was 12.3 µM [falling, partial curve].
Take `O=C(Nc1ccccc1)OCC(CN1CCCCC1)OC(=O)Nc1ccccc1` (stereo not given): the AC50 in test [1] is 35.5 µM [falling, single point]; in test [3] (day 7, measured here: worm number, day 3), 2.3 µM [falling, partial curve, poor fit].
Turning to `C=C(c1ccc(C(=O)O)cc1)c1cc2c(cc1C)C(C)(C)CCC2(C)C`, the AC50 is 31.6 µM [rising, single point] in test [8] (measured here: 530 nm viability channel); 35.5 µM [falling, single point] in test [1]; 17.4 µM [falling, partial curve, poor fit] in test [4] (measured here: PEO4 viability).
With `C1CCC(C(CC2CCCCN2)C2CCCCC2)CC1` (stereo not given), the AC50 in test [8] (setting [14]) is 7.94 µM [falling, partial curve, poor fit]; in [1], 3.98 µM [falling, full curve, poor fit]; in [3] (setting [12]) it was 0.0459 µM [falling, full curve, poor fit]; in [3] (setting [13]) it was 25.8 µM [falling, single point]; in test [4] (setting [15]), 15.5 µM [falling, partial curve]; in test [4] (measured here: PEO4 viability) it was 5.49 µM [falling, partial curve]. Further, the AC50 in test [9] (setting [18]) was 0.935 µM [falling, full curve, poor fit]; in test [9] (setting [20]), 23.5 µM [falling, partial curve]. For the same molecule, the z-score in [9] (setting [16]) was 0.442; in [9] (setting [17]) it was -1.02; in test [9] (setting [19]), -0.269.
As to `CC(=O)SC[C@@H](C)C(=O)N1CCC[C@H]1C(=O)N[C@@H](Cc1ccccc1)C(=O)O`, the AC50 in test [1] was 12.6 µM [rising, single point]. Besides, the z-score is 0.96 in test [9] (setting [16]), 0.513 in test [9] (setting [17]) and 0.827 in test [9] (setting [19]).
